Read-outs that look alike come from different tables or passages of the source. At least one structure is not confirmed: it was looked up by name or label, or the drawing left a doubt.
Key:
[1] = UV-visible absorbance spectra; assay type: physicochemical; conditions: 50 mM sodium tetraborate buffer pH 9.8
Procedure: (§1) Standard UV-visible and fluorescence spectra were recorded in 50 mM sodium tetraborate buffer pH 9.8 at 0.5-10 μM fluorescent compounds concentration. The fluorescence quantum yield of the fluorescent compounds was determined as described by Adamczyk et al. (previously cited) using alkaline solution of fluorescein as a reference (φ=0.92) (Lohse et al.; Adamczyk et al.; Klonis et al. and Martin et al., all previously cited).

[2] = Fluorescence emission spectra and fluorescence quantum yield; assay type: physicochemical; conditions: 50 mM sodium tetraborate buffer pH 9.8
Procedure: as §1

[3] = literature (Klonis, Martin, Flemming, Lohse, Adamczyk), cited from earlier work

## O=C1OC2(c3ccc(O)cc3Oc3cc(O)ccc32)c2ccccc21 [fluorescein]
[1]
  absorbance maximum (longer wavelength): 490 nm
[2]
  fluorescence emission λmax: 512 nm
[3]
  fluorescence quantum yield φ, literature values: 0.92
[3]; listed as fluorescein dianion
  fluorescence quantum yield φ, literature values: 0.92-0.93

Reference: patent US20080275215A1, “Fluorescein-Based Compounds And Their Use For Peptide Synthesis” (COMMISSARIAT A L'ENERGIE ATOMIQUE, priority 2005, published 2008)
